Test results: PubChem BioAssay AID540276 (National Center for Advancing Translational Sciences (NCATS), 2011)
Among all 300,000 compounds or so, about 5,400 (1.8%) were called active. Inconclusive results, whose numbers are uncertain, are shown with a selection of clear calls. Calls follow the shape of the full dose curve; tested in HEK293 cells. Where the call is inconclusive, the potency comes from a doubtful curve fit.

Assay: qHTS for inhibitors of binding or entry into cells for Marburg Virus
Details: Marburg virus pseudotyped entry inhibition, cell reporter; series mostly up to 37.8 µM
Potency is read from the fitted curve at half-maximal effect.

Row | Structure (SMILES) | Potency
1 | O=C(Nc1ccc2nc(SCC(=O)N3CCCC3)sc2c1)c1ccccc1F | inconclusive: 3.16 µM [activator, single point]
2 | C=CCN(C#N)c1nc(OC)nc(N2CCCC2)n1 | inactive
3 | O=C(c1ccc(Cl)cc1)N1CCc2c([nH]c3ccccc23)C1C(F)(F)F (stereo not drawn) | active: 11.2 µM
4 | Cc1ccc(CN2CCc3nc(SCC(=O)Nc4cccc(C)c4C)[nH]c(=O)c3C2)cc1 | inactive
5 | CCN1C(=O)/C(=C2/Sc3ccccc3N2CC)S/C1=N\c1ncn[nH]1 | inconclusive: 7.94 µM [inhibitor, partial curve, poor fit]
6 | Cc1ccc(-c2nc3s/c(=C\c4ccco4)c(=O)n3n2)cc1 | inactive
7 | CCc1ccc(C(=O)Nc2ccc3nn(-c4ccc(C)c(Cl)c4)nc3c2)cc1 | inconclusive: 14.1 µM [activator, single point]
8 | CNC(=O)O/N=C(\N)Cc1csc2ccc(Cl)cc12 | inconclusive: 11.2 µM [inhibitor, partial curve, poor fit]
9 | Cc1ccc2c(c1)C1CN(C)CCC1N2C(=O)c1ccccc1NS(=O)(=O)c1ccc(F)cc1C (stereo not drawn) | inconclusive: 3.55 µM [activator, partial curve, poor fit]
10 | Cc1ccc(N2C(=O)N(CC(=O)NCc3ccc(Cl)cc3)C(=O)C2C)cc1 (stereo not drawn) | inactive
11 | COc1ccc(COc2cccc3ccc(C)nc23)cc1F | inconclusive: 15.8 µM [inhibitor, partial curve, poor fit]
12 | COc1ccccc1C1CCN(Cc2ccc(Cl)cc2Cl)CC1 | inconclusive: 3.55 µM [inhibitor, partial curve, poor fit]
13 | CC1CCN(c2ncnc3c2cnn3Cc2ccc(Cl)cc2)CC1 | inconclusive: 11.2 µM [inhibitor, single point]
14 | CN1CCN(c2ccccc2NS(=O)(=O)c2ccc3c(c2)CCN3C(=O)C2CCC2)CC1 | inconclusive: 25.1 µM [inhibitor, single point]
15 | Cc1ccc(NS(=O)(=O)c2ccc3[nH]c(=O)[nH]c3c2)c(C)c1 | inconclusive: 7.08 µM [inhibitor, partial curve, poor fit]
16 | CC(C)OP(=O)(OC(C)C)C(NC(=O)c1ccccc1)C(N)=O (stereo not drawn) | inactive
17 | O=C(CSc1cn[nH]n1)Nc1ccccc1F | inconclusive: 3.55 µM [activator, single point]
18 | Cn1ccnc1-c1nc2ccccc2[nH]c1=O | inactive
19 | Cc1nnc(SCc2nnc(-c3ccccc3Br)o2)n1-c1ccccc1 | inactive
20 | CCCCN(CCCC)CCNC(=O)CSCc1ccc(C)cc1 | active: 7.08 µM
21 | Cc1ccc(SCc2cn3c(C)cc(C)nc3n2)cc1 | inconclusive: 35.5 µM [activator, single point]
22 | Cc1cc(C[n+]2cc(Br)ccc2N)c2ncccc2c1 | inconclusive: 10 µM [inhibitor, partial curve, poor fit]
23 | CCOC(=O)Cn1c(=O)oc2cc(S(=O)(=O)Nc3ccc(N(CC)CC)cc3C)ccc21 | inactive
24 | CCOC(=O)CSc1nc2ccc(NC(=O)c3ccccc3)cc2s1 | inactive

Row | Structure (SMILES) | Potency
25 | O=C(O)c1sccc1OCc1ccccc1 | inconclusive: 1.78 µM [inhibitor, full curve]
26 | CCCCc1nc2cc(C(=O)N3CCCC(COC)C3)ccc2o1 (stereo not drawn) | inactive
27 | COc1cc(-c2nnc(SCCOc3ccc(C)c(Cl)c3)o2)cc(OC)c1OC | inconclusive: 5.01 µM [activator, full curve]
28 | COc1ccc(-n2c(Cc3cccn3C)nnc2SCC(=O)Nc2ccc(Cl)cc2)cc1 | inactive
29 | COc1ccc(NC(=O)CC2Nc3ccccc3NC2=O)c([N+](=O)[O-])c1 (stereo not drawn) | inactive
30 | Cc1cc(C)c2cc(CN(Cc3ccco3)C(=O)NCc3ccccc3)c(=O)[nH]c2c1 | active: 2.82 µM
31 | CC(=O)Oc1ccc(C(=O)OCC(=O)c2c(N)n(C)c(=O)n(C)c2=O)cc1OC(C)=O | inactive
32 | Cc1cc(NC(=O)c2ccc(Cl)cc2)cc(C)c1OCC(=O)N1CCOCC1 | inconclusive: 22.4 µM [inhibitor, single point]
33 | O=C(CSc1nnc(-c2ccncc2)n1Cc1ccco1)N1c2ccccc2Sc2ccc(Cl)cc21 | inconclusive: 14.1 µM [inhibitor, partial curve, poor fit]
34 | O=C(CSCCc1ccccn1)Nc1ccc(Br)cn1 | inactive
35 | C/C(=N\NC(=O)c1ccc([N+](=O)[O-])cc1)c1c(O)cc(C)oc1=O | inactive
36 | O=C(CNS(=O)(=O)c1cccc(Cl)c1)OCc1csc(-c2ccccc2)n1 | inactive
37 | CCOc1ccc(Oc2ccc(C(F)(F)F)cc2N)cc1 | inconclusive: 25.9 µM [inhibitor, single point]
38 | CC(=O)NC1=NN(C(C)=O)C(C)(c2cccs2)S1 (stereo not drawn) | inconclusive: 12.6 µM [inhibitor, single point]
39 | COc1ccc(C(=O)c2cc([N+](=O)[O-])ccc2N2CCOCC2)cc1 | inconclusive: 0.282 µM [inhibitor, full curve, poor fit]
40 | CC(=O)c1cccc(OC(=O)Oc2cccc(C(C)=O)c2)c1 | inconclusive: 0.447 µM [activator, full curve, poor fit]
41 | COCc1ccc(CN2CCc3c([nH]c4ccccc34)C2C(C)(C)C)o1 (stereo not drawn) | inconclusive: 12.6 µM [inhibitor, partial curve]
42 | O=C1C(Cl)=C(N2CCCCC2)C(=O)N1c1ccccc1Cl | inconclusive: 18.3 µM [inhibitor, single point]
43 | COc1ccc(OCCSc2nnc(-c3ccoc3C)n2C)cc1 | inactive
44 | Cc1ccc2cccc(NC(=O)C(C)(C)Oc3ccc(Br)cc3)c2n1 | inactive
45 | CCCS(=O)(=O)Nc1cc2c(cc1NCc1ccccc1)n(C)c(=O)n2C | inactive
46 | CCOc1ccc(NC(=O)CCS(=O)(=O)c2ccc3c(c2)n(C)c(=O)c(=O)n3C)cc1 | inactive
47 | COc1ccc(C(=O)NC(C)Cn2nc(C)cc2C)cc1OC1CCN(C(C)=O)CC1 (stereo not drawn) | inconclusive: 2 µM [activator, single point]
48 | COc1ccc(C2=NN(C(=O)CSc3nc(=O)n4cc(C)ccc4n3)C(c3ccc(C)cc3)C2)cc1 (stereo not drawn) | inconclusive: 35.5 µM [inhibitor, single point]

Of the compounds above, these contain a CF3 group.
Row | Structure (SMILES) | Potency
3 | O=C(c1ccc(Cl)cc1)N1CCc2c([nH]c3ccccc23)C1C(F)(F)F (stereo not drawn) | active: 11.2 µM
37 | CCOc1ccc(Oc2ccc(C(F)(F)F)cc2N)cc1 | inconclusive: 25.9 µM [inhibitor, single point]
